Results: article PMC4786428, “Recombinational branch migration by the RadA/Sms paralog of RecA in Escherichia coli”
Residue numbers refer to the chain shown, from its start. Weaker means in comparison with the reference protein, sequence or condition of that experiment. Tags and fusion partners may be left off the protein sequences shown.

Key:
Test in all cases: EMSA
Settings in all cases: 1 mM ADP, defective relative to wild type; 50 mM Tris-HCl pH 7.5, 10 mM MgCl2, 0.1 mM EDTA, 75 mM NaCl, 5 mM DTT, 100 ug/ml BSA, 1 mM nucleotide, 100 fmol DNA, 37 C for 20-30 min; recombinant protein; residues 1-460; label: 5' 32P (unlabeled as competitor); single-stranded DNA
[1] = molecular target: T1, RadA K258A (Escherichia coli) (UniProt P24554)
T1 sequence (looked up): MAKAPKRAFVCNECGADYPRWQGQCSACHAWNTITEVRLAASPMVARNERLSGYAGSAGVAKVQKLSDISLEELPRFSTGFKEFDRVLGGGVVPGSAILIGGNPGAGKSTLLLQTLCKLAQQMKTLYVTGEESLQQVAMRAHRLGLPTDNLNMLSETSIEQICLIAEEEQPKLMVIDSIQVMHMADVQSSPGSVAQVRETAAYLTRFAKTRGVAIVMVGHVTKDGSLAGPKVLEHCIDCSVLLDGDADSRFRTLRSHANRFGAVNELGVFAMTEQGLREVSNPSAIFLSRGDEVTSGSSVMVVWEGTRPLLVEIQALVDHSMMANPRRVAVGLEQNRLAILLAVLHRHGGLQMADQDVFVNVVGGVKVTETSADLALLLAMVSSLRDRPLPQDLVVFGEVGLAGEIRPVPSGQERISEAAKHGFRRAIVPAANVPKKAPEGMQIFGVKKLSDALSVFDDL

[2] = molecular target: T2, RadA K108R (Escherichia coli) (UniProt P24554)
T2 sequence (looked up): T1 sequence (looked up) with K108R, A258K

[3] = molecular target: T3, RadA C28Y (Escherichia coli) (UniProt P24554)
T3 sequence (looked up): T1 sequence (looked up) with C28Y, A258K

Measured: binding result

TTTTTTTTTTTTTTTTTTTTTTTTTTTTTT [poly(dT)30]
binds more weakly: all assays above
